Test results reported in PubChem BioAssay AID1159577 (Broad Institute, 2015).
The campaign covered roughly 1,300 compounds. About 240 (18%) were called active. Not shown: some 8% with an inconclusive outcome. How the calls were made is not given here. This is a selection; strong and weak results do not stand in their true shares. Potency and affinity values are given separately.

experiment: HepG2 cell cytotoxicity, dose response, cytotoxicity control, cherry-picked samples (AID 1159577); settings: HepG2 cytotoxicity counterscreen, plate reader; at 19.5 µM (top of the series) unless noted;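 further: 0% = neutral control wells and -100% = positive control wells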

SMILES	activity change, negative = cytotoxicity
OC[C@H]1Nc2ccc(C#Cc3cccnc3)cc2[C@H]2NCC[C@H]21	inactive: 1.97%
Cc1ccc(OC(=O)N(C)C[C@H]2OCc3ccccc3-c3c(n(C)c4ccccc34)C(=O)N([C@H](C)CO)C[C@@H]2C)cc1	inactive: 8.6%
O=C(Cc1ccccn1)N1CCCCN2[C@@H](CO)[C@@H](c3ccc(C#Cc4ccccc4)cc3)[C@@H]2C1	inactive: -35% [at 21 µM]
O=C(C1CC1)N1C[C@@H]2N[C@H](C1)[C@@H]2c1ccc(-c2ccncc2)cc1	inactive: -7.99%
